Measurements reported in the supplement of paper PMC10849652.
Some of the results follow.

The chains behind the UniProt entries cited, without tags or fusion partners. Where a name states a change or a piece, a line headed by the entry shows the natural chain unless it says otherwise.
UniProt Q13127: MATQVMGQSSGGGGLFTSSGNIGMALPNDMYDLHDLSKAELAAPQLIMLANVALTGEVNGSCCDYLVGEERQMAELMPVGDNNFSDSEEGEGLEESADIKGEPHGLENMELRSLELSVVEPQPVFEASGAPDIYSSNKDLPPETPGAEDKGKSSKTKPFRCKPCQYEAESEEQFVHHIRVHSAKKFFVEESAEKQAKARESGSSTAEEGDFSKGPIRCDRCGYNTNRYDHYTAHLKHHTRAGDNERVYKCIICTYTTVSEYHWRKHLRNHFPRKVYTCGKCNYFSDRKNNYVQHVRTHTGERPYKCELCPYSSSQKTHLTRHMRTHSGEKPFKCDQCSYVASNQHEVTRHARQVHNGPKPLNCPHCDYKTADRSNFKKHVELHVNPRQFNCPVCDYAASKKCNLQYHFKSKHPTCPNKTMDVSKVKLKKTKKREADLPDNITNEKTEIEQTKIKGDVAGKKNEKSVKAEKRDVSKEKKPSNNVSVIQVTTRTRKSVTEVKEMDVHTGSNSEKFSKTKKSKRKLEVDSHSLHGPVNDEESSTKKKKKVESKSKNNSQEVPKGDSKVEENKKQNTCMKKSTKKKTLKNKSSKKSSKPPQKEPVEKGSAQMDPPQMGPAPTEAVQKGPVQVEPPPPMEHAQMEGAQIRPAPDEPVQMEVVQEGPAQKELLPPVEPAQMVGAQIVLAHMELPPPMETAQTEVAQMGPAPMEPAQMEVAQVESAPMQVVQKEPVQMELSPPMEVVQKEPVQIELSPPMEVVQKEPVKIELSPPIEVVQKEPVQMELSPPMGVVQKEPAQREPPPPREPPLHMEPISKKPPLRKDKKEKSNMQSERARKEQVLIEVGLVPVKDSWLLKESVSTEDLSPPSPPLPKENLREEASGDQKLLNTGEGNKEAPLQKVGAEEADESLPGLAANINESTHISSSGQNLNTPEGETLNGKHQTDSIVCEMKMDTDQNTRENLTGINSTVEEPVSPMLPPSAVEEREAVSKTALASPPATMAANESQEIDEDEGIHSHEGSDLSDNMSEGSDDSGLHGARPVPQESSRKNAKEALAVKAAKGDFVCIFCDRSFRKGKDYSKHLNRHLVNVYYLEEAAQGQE
UniProt Q9NW64: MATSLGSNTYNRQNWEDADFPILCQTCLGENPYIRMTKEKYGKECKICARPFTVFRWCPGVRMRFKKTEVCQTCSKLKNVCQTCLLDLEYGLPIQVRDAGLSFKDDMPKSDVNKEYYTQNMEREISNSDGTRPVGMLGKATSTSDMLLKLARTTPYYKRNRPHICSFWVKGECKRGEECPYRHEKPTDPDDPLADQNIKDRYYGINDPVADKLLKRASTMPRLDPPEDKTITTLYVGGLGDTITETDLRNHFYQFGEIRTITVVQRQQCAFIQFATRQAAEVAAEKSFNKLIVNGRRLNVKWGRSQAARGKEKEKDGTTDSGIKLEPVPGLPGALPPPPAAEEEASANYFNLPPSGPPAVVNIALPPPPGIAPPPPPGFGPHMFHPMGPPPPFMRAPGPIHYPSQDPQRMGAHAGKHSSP
UniProt Q8NC44: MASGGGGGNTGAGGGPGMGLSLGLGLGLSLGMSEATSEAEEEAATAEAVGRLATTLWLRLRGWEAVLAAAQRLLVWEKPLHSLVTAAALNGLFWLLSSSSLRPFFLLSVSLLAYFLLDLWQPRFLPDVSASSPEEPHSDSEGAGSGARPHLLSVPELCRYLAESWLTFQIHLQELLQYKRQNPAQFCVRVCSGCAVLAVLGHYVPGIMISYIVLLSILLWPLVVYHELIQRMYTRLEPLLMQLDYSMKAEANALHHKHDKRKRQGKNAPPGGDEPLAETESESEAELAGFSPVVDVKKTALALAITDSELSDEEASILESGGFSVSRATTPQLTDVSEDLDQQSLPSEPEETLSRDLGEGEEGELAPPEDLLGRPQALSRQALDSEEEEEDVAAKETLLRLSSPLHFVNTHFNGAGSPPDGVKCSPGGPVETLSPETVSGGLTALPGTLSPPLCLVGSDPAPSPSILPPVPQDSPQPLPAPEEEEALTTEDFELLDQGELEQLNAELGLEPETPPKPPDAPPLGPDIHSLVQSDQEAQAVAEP
UniProt Q14498: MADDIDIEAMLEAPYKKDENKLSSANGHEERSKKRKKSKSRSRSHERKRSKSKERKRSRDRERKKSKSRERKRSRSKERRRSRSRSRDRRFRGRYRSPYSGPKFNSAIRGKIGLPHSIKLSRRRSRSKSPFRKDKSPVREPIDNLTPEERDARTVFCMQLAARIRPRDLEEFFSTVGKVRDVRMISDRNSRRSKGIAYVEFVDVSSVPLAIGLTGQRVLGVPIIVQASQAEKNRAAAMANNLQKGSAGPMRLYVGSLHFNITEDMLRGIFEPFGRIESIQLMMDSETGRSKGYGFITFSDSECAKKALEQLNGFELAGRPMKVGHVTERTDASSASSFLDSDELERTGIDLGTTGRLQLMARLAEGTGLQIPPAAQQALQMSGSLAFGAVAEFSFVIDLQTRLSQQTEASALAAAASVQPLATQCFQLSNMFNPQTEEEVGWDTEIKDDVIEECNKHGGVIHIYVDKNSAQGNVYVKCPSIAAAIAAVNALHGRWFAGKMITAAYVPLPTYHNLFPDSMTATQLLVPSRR
UniProt P35249, whole entry, looked up: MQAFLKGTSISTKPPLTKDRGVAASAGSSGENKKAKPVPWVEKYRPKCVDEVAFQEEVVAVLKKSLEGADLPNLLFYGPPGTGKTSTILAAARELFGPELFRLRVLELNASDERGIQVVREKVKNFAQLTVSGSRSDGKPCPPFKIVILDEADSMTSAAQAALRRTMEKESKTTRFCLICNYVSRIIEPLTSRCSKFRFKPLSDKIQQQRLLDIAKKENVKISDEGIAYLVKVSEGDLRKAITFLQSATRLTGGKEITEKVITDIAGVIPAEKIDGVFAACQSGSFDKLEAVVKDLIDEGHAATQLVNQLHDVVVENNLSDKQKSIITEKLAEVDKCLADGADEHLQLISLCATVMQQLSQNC
UniProt Q9H0Z9: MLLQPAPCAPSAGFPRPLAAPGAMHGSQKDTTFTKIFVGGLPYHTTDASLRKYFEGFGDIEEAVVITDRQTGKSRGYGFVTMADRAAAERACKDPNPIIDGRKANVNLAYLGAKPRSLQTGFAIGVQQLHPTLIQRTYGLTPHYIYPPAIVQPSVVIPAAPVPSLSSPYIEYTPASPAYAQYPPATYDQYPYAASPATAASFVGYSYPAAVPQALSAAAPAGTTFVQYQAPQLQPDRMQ
UniProt Q14257: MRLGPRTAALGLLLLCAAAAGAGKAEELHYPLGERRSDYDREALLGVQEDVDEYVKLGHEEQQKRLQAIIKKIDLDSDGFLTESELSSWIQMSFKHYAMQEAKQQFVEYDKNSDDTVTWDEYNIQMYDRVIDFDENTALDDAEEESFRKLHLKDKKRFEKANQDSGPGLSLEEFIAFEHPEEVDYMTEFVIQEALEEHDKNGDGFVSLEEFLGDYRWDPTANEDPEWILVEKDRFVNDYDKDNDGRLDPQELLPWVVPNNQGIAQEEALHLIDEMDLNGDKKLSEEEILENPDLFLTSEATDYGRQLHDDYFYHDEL
UniProt Q2KHR2: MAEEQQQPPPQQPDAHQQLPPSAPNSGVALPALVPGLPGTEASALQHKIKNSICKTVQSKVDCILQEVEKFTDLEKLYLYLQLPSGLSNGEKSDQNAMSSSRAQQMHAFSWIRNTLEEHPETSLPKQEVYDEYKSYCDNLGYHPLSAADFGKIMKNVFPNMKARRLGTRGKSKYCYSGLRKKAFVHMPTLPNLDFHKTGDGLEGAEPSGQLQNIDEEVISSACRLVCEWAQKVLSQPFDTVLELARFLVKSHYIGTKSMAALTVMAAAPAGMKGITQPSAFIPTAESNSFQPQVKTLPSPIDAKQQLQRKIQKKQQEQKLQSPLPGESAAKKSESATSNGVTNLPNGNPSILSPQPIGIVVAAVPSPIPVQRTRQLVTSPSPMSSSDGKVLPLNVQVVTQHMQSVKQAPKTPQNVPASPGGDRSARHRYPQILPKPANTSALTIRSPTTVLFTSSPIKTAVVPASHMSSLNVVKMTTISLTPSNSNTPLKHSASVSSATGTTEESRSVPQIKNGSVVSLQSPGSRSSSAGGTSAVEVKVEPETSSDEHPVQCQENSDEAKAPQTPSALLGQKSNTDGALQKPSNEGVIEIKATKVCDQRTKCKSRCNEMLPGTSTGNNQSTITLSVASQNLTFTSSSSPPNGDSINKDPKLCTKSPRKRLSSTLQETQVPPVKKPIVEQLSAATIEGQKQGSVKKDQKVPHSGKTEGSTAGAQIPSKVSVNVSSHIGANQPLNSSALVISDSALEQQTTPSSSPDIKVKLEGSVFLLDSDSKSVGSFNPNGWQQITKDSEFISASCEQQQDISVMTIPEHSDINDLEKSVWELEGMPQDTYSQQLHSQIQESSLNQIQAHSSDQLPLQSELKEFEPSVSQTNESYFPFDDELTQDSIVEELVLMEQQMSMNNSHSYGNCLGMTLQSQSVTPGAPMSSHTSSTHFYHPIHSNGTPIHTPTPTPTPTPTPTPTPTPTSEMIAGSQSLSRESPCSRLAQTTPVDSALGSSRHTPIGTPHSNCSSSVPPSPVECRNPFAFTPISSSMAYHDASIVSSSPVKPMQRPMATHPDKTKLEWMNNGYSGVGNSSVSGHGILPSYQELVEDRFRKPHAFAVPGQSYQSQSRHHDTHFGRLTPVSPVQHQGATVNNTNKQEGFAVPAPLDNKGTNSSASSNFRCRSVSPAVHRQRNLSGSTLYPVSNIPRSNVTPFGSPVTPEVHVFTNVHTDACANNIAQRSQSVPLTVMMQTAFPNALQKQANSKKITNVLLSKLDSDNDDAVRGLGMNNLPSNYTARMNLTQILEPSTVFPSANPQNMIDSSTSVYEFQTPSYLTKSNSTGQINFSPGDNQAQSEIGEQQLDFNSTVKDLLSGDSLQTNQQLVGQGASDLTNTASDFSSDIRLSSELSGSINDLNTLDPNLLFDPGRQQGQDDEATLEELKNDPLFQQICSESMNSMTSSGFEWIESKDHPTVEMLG
UniProt Q8TEU7: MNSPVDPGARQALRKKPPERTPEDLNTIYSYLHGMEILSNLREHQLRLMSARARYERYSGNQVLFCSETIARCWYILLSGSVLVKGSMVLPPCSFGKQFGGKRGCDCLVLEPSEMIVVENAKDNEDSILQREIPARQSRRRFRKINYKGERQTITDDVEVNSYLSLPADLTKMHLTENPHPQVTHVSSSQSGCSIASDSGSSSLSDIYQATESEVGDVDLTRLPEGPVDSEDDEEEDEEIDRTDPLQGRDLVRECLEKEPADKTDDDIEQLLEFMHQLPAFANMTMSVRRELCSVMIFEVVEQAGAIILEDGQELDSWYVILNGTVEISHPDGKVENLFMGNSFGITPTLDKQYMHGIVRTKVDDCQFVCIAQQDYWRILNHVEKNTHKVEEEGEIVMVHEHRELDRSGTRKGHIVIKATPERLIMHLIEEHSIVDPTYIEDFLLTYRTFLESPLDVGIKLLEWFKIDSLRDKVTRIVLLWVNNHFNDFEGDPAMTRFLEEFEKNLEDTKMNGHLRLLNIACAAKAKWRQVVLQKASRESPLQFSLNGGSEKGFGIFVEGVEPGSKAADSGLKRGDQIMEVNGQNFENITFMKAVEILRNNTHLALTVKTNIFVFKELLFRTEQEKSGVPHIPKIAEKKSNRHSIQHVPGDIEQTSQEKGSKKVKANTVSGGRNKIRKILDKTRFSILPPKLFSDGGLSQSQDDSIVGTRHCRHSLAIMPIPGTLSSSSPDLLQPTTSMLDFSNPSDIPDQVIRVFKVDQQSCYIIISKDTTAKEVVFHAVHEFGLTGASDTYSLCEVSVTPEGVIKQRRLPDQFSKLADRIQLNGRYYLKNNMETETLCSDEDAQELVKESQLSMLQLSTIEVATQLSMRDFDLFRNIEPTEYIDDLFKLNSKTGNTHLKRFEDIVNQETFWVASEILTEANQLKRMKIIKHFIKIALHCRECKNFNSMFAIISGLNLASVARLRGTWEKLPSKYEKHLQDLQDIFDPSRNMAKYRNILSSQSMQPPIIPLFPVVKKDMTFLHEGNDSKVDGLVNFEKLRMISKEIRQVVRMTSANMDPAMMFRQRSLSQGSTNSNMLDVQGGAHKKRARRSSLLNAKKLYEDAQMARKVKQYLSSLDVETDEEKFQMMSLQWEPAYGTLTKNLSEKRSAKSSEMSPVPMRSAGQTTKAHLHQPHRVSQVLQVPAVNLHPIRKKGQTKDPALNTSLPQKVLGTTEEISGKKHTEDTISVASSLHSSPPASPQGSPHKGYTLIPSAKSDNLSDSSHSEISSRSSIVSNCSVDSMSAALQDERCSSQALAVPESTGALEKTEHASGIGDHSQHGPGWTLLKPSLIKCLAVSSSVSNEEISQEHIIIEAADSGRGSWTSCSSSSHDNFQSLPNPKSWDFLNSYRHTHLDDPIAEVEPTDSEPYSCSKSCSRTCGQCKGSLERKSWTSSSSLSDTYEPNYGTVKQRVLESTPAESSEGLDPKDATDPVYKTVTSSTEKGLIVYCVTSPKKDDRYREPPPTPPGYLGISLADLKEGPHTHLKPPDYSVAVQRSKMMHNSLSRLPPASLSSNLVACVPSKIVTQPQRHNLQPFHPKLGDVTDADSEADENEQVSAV

Columns and labels:
Assay in all cases: log2 fold change, soluble protein after heating vs DMSO (PISA); higher = thermal stabilisation; K562 lysate, 10 uM; active = over 0.2 and 3.5 SD of the protein, either way, in both replicates (recomputed)
[1] = compound: NCC(=O)Nc1ccc(-n2nc(C(F)(F)F)cc2-c2ccc3c(ccc4ccccc43)c2)cc1
In short: (§1)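 K562 pellets were dounce-homogenised in PBS pH 7.4 containing 1 mM MgCl2, and the crude extract, at 1 mg/mL protein, was exposed to 10 μM compound for 30 min. Aliquots were heated for 3 min across 48°C-58°C, pooled, brought to 0.5% NP-40 at 4°C and spun at 21,000xg for 90 min, with the supernatant taken as soluble protein. TMTpro 16plex LC-MS/MS with equalised channel sums quantified that protein. Values are log-two fold changes in thermal stability relative to solvent controls, taken from duplicates.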

vorinostat = compound: O=C(CCCCCCC(=O)Nc1ccccc1)NO [vorinostat]
In short: as §1

silmitasertib = compound: O=C(O)c1ccc2c(c1)nc(Nc1cccc(Cl)c1)c1ccncc12 [silmitasertib]
In short: as §1

[2] = compound: O=C1NC(=O)C(c2cnc3ccccn23)=C1c1cn2c3c(cc(F)cc13)CN(C(=O)N1CCCCC1)CC2
In short: as §1

entospletinib = compound: c1cn2cc(-c3ccc4cn[nH]c4c3)nc(Nc3ccc(N4CCOCC4)cc3)c2n1 [entospletinib]
In short: as §1

Measured: log2 fold change

RECQL4 (UniProt O94761)
inactive: [1] -0.003 | vorinostat -0.044 | silmitasertib 0.019 | [2] 0.022 | entospletinib -0.023

REST (UniProt Q13127)
inactive: [1] -0.047 | vorinostat 0.015 | silmitasertib -0.458 | [2] 0.063

RBM10 isoform 5 (UniProt P98175)
inactive: [1] 0.039 | vorinostat 0.136 | silmitasertib -0.038 | [2] -0.074 | entospletinib -0.009

RBM22 (UniProt Q9NW64)
active: vorinostat -0.23
inactive: [1] 0.024 | silmitasertib 0 | [2] -0.053 | entospletinib -0.023

RETREG2 (UniProt Q8NC44)
inactive: [1] -0.058 | vorinostat 0.023 | silmitasertib 0.015 | [2] -0.007 | entospletinib -0.004

RBBP7 (UniProt Q16576)
inactive: [1] -0.005 | vorinostat -0.091 | silmitasertib 0.033 | [2] -0.167 | entospletinib 0

RBMX (UniProt P38159)
inactive: [1] -0.043 | vorinostat 0.065 | silmitasertib 0.048 | [2] -0.022 | entospletinib 0.008

RBM39 (UniProt Q14498)
inactive: [1] 0.046 | vorinostat 0 | silmitasertib -0.076 | [2] -0.009 | entospletinib -0.047

Two records picked at random from the list so far, as already listed:
RBM22 (UniProt Q9NW64)
active: vorinostat -0.23
inactive: [1] 0.024 | silmitasertib 0 | [2] -0.053 | entospletinib -0.023

RBBP7 (UniProt Q16576)
inactive: [1] -0.005 | vorinostat -0.091 | silmitasertib 0.033 | [2] -0.167 | entospletinib 0

More results follow:

REXO4 (UniProt Q9GZR2)
inactive: [1] 0.03 | vorinostat -0.127 | silmitasertib 0.05 | [2] -0.035 | entospletinib 0.067

RB1 (UniProt P06400)
inactive: [1] -0.002 | vorinostat -0.025 | silmitasertib 0.004 | [2] -0.063 | entospletinib -0.003

RFC4 (UniProt P35249)
inactive: [1] 0.013 | silmitasertib 0.033 | [2] 0.008 | entospletinib 0.006
active: vorinostat -0.423

REXO2 (UniProt Q9Y3B8)
inactive: [1] 0.014 | vorinostat 0.01 | silmitasertib -0.006 | [2] -0.011 | entospletinib 0.045

RHAG (UniProt Q02094)
inactive: [1] 0.031 | vorinostat -0.026 | silmitasertib 0.153 | [2] 0.015 | entospletinib -0.03

RDH10 (UniProt Q8IZV5)
inactive: [1] -0.038 | vorinostat -0.007 | silmitasertib 0.006 | [2] -0.042 | entospletinib 0.162

RCCD1 (UniProt A6NED2)
inactive: [1] -0.06 | vorinostat -0.043 | silmitasertib 0.038 | [2] 0.002 | entospletinib -0.055

RBM38 (UniProt Q9H0Z9)
inactive: [1] -0.02 | vorinostat -0.011 | silmitasertib -0.006 | [2] -0.106 | entospletinib -0.04

RCN2 isoform 2 (UniProt Q14257)
inactive: [1] -0.021 | vorinostat 0.092 | silmitasertib 0.047 | [2] -0.012 | entospletinib 0.039

RCE1 (UniProt Q9Y256)
inactive: [1] -0.208 | vorinostat -0.034 | silmitasertib 0.092 | [2] -0.026 | entospletinib -0.021

RDH11 (UniProt Q8TC12)
inactive: [1] 0.008 | vorinostat 0.038 | silmitasertib 0.022 | [2] -0.047 | entospletinib 0.014

RFLNB (UniProt Q8N5W9)
inactive: [1] -0.031 | vorinostat 0.081 | silmitasertib -0.058 | [2] -0.002 | entospletinib 0.019

RFESD isoform 2 (UniProt Q8TAC1)
inactive: [1] 0.029 | vorinostat 0.091 | silmitasertib -0.031 | [2] -0.018 | entospletinib 0.044

RFX7 (UniProt Q2KHR2)
inactive: [1] -0.053 | vorinostat -0.046 | silmitasertib 0.045 | [2] 0.016 | entospletinib -0.057

RAPGEF6 isoform 4 (UniProt Q8TEU7)
inactive: [1] -0.012 | vorinostat -0.195 | silmitasertib 0.011 | [2] 0 | entospletinib -0.035

RARS (UniProt P54136)
active: vorinostat -0.309
inactive: [1] -0.004 | silmitasertib 0.056 | [2] -0.009 | entospletinib 0.024
